Experimental findings from publication PMC6529640, “Bacterioferritin of Magnetospirillum gryphiswaldense Is a Heterotetraeicosameric Complex Composed of Functionally Distinct Subunits but Is Not Involved in Magnetite Biomineralization” (mBio, 2019) are described below.

The chains behind the UniProt entries cited, without tags or fusion partners. Where a name states a change or a piece, a line headed by the entry shows the natural chain unless it says otherwise.
UniProt A0ACM8UJ62: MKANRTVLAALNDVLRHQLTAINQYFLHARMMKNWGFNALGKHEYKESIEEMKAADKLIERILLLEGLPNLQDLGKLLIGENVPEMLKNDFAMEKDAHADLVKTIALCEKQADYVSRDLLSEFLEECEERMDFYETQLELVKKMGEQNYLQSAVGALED
UniProt A0ACM8UIY5: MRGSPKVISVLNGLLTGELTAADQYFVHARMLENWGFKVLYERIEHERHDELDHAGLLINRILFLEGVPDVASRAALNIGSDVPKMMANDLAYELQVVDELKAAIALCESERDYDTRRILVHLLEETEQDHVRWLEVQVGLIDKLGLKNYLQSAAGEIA

In assay [1] the target is Strep-tagged Bfr1 of MSR-1, coexpressed with His-tagged Bfr2 from pET-51b-Bfr12 (Magnetospirillum gryphiswaldense MSR-1). Put plainly: pull-down; Strep tag affinity purification of Strep-tagged Bfr1 from E. coli Rosetta(DE3)pLysS coexpressing His-tagged Bfr2 (pET-51b-Bfr12); Coomassie-stained SDS-PAGE.
Assay [2] shares this target. Put plainly: native gel or EMSA; BN-PAGE of purified proteins on polyacrylamide gradient gels, run at 4°C, Coomassie stained; Bfr2 and Bfr12 ~22 μM, Bfr1 ~30 μM in 50 mM Tris-HCl, 50 mM NaCl, pH 8.0, or Bfr12 dialysed against 50 mM imidazole-HCl, 50 mM NaCl, pH 7; for Bfr12 also a second dimension of SDS-PAGE (2D-BN/SDS-PAGE); both purified.
Assay [3] concerns the target His-tagged Bfr2 of MSR-1, coexpressed with Strep-tagged Bfr1 from pET-51b-Bfr12 (Magnetospirillum gryphiswaldense MSR-1). Put plainly: pull-down; tandem affinity purification: Strep-tag eluate then purified by the His-tagged Bfr2 on Ni-NTA; Coomassie-stained SDS-PAGE.

These are yes or no findings as the source states them, for the method shown. Binding calls can cover weak binding; strength is not graded here. For part of these data: Binding seen in cells or lysates may run through a third protein.

On to “His-tagged Bfr2 of MSR-1, coexpressed with Strep-tagged Bfr1 from pET-51b-Bfr12 (from UniProt A0ACM8UJ62 1-159)”, for which the binding result in assay [1] and in assay [2] was “binds” each time.
“Strep-tagged Bfr1 of MSR-1, coexpressed with His-tagged Bfr2 from pET-51b-Bfr12 (from UniProt A0ACM8UIY5)”: in assay [3], the binding result is recorded as “binds”.
